# Patent US10793514B2, “Glutamine transport inhibitors and methods for treating cancer” (Vanderbilt University, priority 2016, dated 2020)
# What was measured:
# [1] = Plasma glucose and glutamine analysis; format: in vivo, mouse; settings: vs vehicle
# [2] = test system: HCC1806 cell line xenograft; experiment: [18F]-4F-glutamine PET imaging; format: in vivo, mouse; settings: single dose 75 mg/kg, 4 h
# Description: Animal handling methods for PET imaging studies were conducted as reported^5,42 Prior to imaging, animals were allowed to acclimate to facility environment for at least 1 h in a warmed chamber at 31.5° C. Animals were administered 10.4-11.8 MBq 4-[^18F]fluoroglutamine via intravenous injection and imaged using a Concorde Microsystems Focus 220 microPET scanner (Siemens Preclinical Solutions). During imaging, animals were maintained under 2% isoflurane anesthesia in oxygen at 2 L/min and kept warm for the duration of the PET scan. PET images in xenograft-bearing mice were acquired as 60-minute dynamic data sets. […] PET data were reconstructed using a three-dimensional (3D) ordered subset expectation maximization/maximum a posteriori (OSEM3D/MAP) algorithm. […] ASIPro software (Siemens Preclinical Solutions) was used to manually draw 3D regions of interest (ROIs) surrounding the entire tumor volume. 4-[^18F]fluoroglutamine uptake was quantified as the percentage of the injected dose per gram of tissue (% ID/g). Significance was calculated using a t-test in Graphpad Prism. Error is reported as standard deviation (SD).
# For in vivo studies, cell-line xenograft tumors were propagated in 6-week old, female athymic nude mice from immortalized cell lines. […] Tumor volumes were measured manually using calipers every third day and quantified using the formula V=W·L·(H/2).
smiles,measurement,setting,value
Cc1cccc(COc2ccccc2CN(CCC(N)C(=O)O)Cc2ccccc2OCc2cccc(C)c2)c1 (stereo not drawn) [Compound V-9302],"plasma glucose levels, chronic exposure","[1]; 75 mg/kg daily, 21-day regimen",not significantly different
same,"plasma glutamine levels, chronic exposure","[1]; 75 mg/kg daily, 21-day regimen",slightly decreased
same,"elevation of plasma glutamine levels, acute exposure","[1]; single dose 75 mg/kg, 4 h",approximately 50%
same,"plasma glucose levels, acute exposure","[1]; single dose 75 mg/kg, 4 h",not significantly different
same,[18F]-4F-glutamine uptake in muscle,[2],unaffected
same,[18F]-4F-glutamine uptake in liver,[2]; p=0.05,modestly elevated
